T. brucei: 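Whole-parasite assay of Trypanosoma brucei over 72 hours; the read-out is not stated. Concentration: 30 µM. The record gives no direction; compounds that gave an IC50 in retests scored well above the rest, so higher reads as stronger inhibition. Values scatter widely below zero; nearly all retest evidence comes from the higher of the two concentrations used. Size under these conditions: about 64,000 compounds, about 940 of them at 50% or above in at least one test.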
TcHisRS: 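Enzyme assay of histidyl-tRNA synthetase; the read-out is not stated. Target: Histidine-tRNA ligase, Trypanosoma cruzi CL Brener (UniProt Q4DA54). Concentration: 30 µM. The record gives no direction; compounds that gave an IC50 in retests scored well above the rest, so higher reads as stronger inhibition. Size under these conditions: about 69,000 compounds, about 31 of them at 50% or above in at least one test.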
LiHisRS: 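Histidine-tRNA ligase, Leishmania infantum (UniProt A4I591). Enzyme assay of histidyl-tRNA synthetase; the read-out is not stated. Tested at 30 µM. The record gives no direction; compounds that gave an IC50 in retests scored well above the rest, so higher reads as stronger inhibition. The assay is labelled LdHisRS but filed under L. infantum. Of about 69,000 compounds tested this way, about 410 (0.6%) reached 50% or more in at least one test.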

Protein sequences, listed by entry. Tags and fused reporters are not part of them. Residues count along the entry.
UniProt Q4DA54, 1-478: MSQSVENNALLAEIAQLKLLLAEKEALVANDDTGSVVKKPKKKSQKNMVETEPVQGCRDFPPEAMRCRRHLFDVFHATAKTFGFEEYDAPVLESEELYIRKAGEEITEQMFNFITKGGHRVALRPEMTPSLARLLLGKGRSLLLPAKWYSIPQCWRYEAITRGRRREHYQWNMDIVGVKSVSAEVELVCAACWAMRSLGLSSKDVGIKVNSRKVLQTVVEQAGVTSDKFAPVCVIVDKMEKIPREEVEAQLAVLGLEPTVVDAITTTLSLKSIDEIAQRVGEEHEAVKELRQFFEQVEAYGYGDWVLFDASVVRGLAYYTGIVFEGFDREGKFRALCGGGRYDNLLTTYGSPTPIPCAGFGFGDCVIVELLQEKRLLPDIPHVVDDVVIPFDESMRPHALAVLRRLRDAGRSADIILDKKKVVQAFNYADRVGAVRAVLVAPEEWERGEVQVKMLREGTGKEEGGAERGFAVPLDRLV
UniProt A4I591, 1-473: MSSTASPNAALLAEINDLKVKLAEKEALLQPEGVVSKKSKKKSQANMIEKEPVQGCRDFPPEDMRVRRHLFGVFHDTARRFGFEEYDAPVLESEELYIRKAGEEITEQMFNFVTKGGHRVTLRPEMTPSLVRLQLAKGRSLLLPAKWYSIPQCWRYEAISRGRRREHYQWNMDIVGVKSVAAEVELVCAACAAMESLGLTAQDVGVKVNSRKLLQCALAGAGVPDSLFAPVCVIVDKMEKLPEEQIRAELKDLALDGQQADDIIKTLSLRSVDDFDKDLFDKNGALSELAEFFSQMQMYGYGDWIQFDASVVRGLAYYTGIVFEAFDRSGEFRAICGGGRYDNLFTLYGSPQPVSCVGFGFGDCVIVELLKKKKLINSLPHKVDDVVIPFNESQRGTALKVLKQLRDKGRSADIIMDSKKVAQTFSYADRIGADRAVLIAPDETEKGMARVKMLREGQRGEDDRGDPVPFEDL

Each number is a percent effect as filed. How 0% and 100% were set is not recorded. Most values in the screen are low, and negative values occur. Compounds were drawn at random from those tested, without regard to their results. A dash means the value is not listed here; it may have been measured.

| Compound | T. brucei | TcHisRS | LiHisRS |
|---|---|---|---|
| `O=C(O)C(F)(F)F.O=C1COC2(CCN(c3ncccn3)CC2)CN1Cc1ccccn1` | -20.73 | - | - |
| `O=C(O)C(F)(F)F.[H][C@@]12CCCO[C@]1([H])[C@@H](OCC(=O)N(C)C)CN2Cc1ccccc1` | -26.08 | - | - |
| `CN1CCCC1c1cc2cccnc2n1Cc1ccc(F)cc1` (centres undefined) | - | 5.303 | 15.49 |
| `[H][C@@]12CN(S(=O)(=O)CCC)C[C@]1([H])N(CCc1cccc(Cl)c1)C(=O)O2` | 43.6 | - | - |
| `NC(=O)C1CN(c2ccc(Br)cn2)CCO1` (centres undefined) | -15.25 | -4.294 | 19.75 |
| `CC(C)[C@@H]1CN(C(=O)NCCc2ccccc2)C[C@H]1NS(=O)(=O)N(C)C` | -19.93 | 3.947 | 14.17 |
| `O=C(O)c1cn(CC2CCCN(c3nc4ccccc4s3)C2)nn1` (centres undefined) | -2.75 | 13.1 | 18.6 |
| `COCC(=O)N1CCC(C)(c2cc(O)[nH]n2)CC1` | -17.35 | 6.513 | 17.14 |
| `CCOc1ncccc1CNc1nnc(C)c(C)c1C#N` | - | 11.37 | 22.02 |
| `CCc1ccc(CNc2cc(-c3ccoc3C)nn2CCO)o1` | -71.25 | 7.059 | 13.49 |
| `CC(C(=O)NCc1ccnc(N2CCN(C)CC2)c1)n1cccn1` (centres undefined) | -17.52 | -1.901 | 20 |
| `CCNS(=O)(=O)C1CCN(C(=O)c2c(F)cc(F)cc2F)C1` (centres undefined) | -22.45 | 4.255 | 12.5 |
| `CCc1ccc(C(=O)Nc2ccc(CC3CC(=O)NC3=O)cc2)cc1` (centres undefined) | -8.883 | -0.8264 | 25 |
| `COCCN(Cc1ccccc1)C(=O)c1csc(-c2nnc[nH]2)n1` | -46.84 | 7.071 | 5.319 |
| `CSCCC1c2nc[nH]c2CCN1Cc1cc(Cl)ccc1O` (centres undefined) | 7.699 | 12.03 | 18.45 |
| `CS(=O)(=O)N1CCC(c2nnc(Cn3ccnc3)n2C2CC2)CC1` | -22.01 | 6.818 | 18.33 |
| `Cl.c1cc(CNc2cnc(C3CCCN3)cn2)ccn1` (centres undefined) | -6.296 | - | - |
| `O=C(Cn1nc(Br)nc1Br)N1CCOCC1` | -23.17 | 4.124 | 17.24 |
| `CC(C)c1cc2c(s1)NC(c1ccccn1)NC2=O` (centres undefined) | 8.142 | 10.89 | 9.524 |
| `CCCC(=O)N(CCCN1CCOCC1)c1nc2c(C)c(C)ccc2s1.Cl` | 27.33 | - | - |
| `CCN1CCC2(COCc3c(C)nc(N4CCOCC4)nc32)C1` (centres undefined) | -165.4 | 5.435 | -6.579 |
| `CC(=O)NCCNC(=O)NCc1ccc(Br)cc1Cl` | -28.57 | 7.407 | 8.602 |
| `CN(C)Cc1cn2c(n1)CN(C(=O)Cc1ccsc1)CC2.O=C(O)C(F)(F)F` | -42.4 | - | - |
| `CC(C)c1nc(CS(=O)(=O)Cc2noc(C3CC3)n2)cs1` | -13.69 | 6.383 | 15.71 |
| `CN(C)C[C@@H]1C[C@@H]2CN(C(=O)c3ccoc3)CC[C@@H]2N1CC1CC1` | - | 2.256 | 7.317 |
| `CCOCc1ncn2c1CN(S(=O)(=O)c1cccs1)CC2` | -6.931 | 8.824 | 25.71 |
| `Cc1ccc(CNC(=O)NC2CCCN(c3ncccn3)C2)cn1` (centres undefined) | 40.67 | 3.333 | 15.09 |
| `c1cnn(CC2CCCCN2c2ncnc3ccsc23)c1` (centres undefined) | - | 3.207 | 9.174 |
| `CNS(=O)(=O)c1ccc(C(=O)NCCNc2ncccn2)cc1` | 8.336 | -4.545 | -10.61 |
| `COCCCn1ccc(NS(=O)(=O)c2cc(F)c(C)cc2F)n1` | -15.45 | 6.098 | 21.05 |
| `CCC(=O)N1CCC(NC2CCCC2)C1` (centres undefined) | -36.49 | 0 | 15 |
| `CN(C)Cc1cc(C2CCCCN2S(=O)(=O)c2cccc(Cl)c2)nn1C` (centres undefined) | - | 10.9 | 9.929 |
| `COc1ccc(C(=O)N2CCCCC2Cn2cccn2)c(F)c1` (centres undefined) | 21.18 | 0.7634 | 19.18 |
| `[H][C@@]12CCN(Cc3ccccn3)C[C@@]1([H])O[C@H](C)C2` | -20.18 | - | - |
| `Cc1cc(C(=O)NC(C)c2nnn[nH]2)c2cccc(C)c2n1` (centres undefined) | -9.907 | 7.407 | 15.05 |
| `O=C(c1cccc(C2CCNC2)c1)N1CCC(N2CCC(O)CC2)CC1` (centres undefined) | -3.338 | 0 | 30.12 |
| `COCCCN1CC2(CCCN(c3ncc4nc[nH]c4n3)C2)CCC1=O` (centres undefined) | 10.97 | 4.762 | 6.667 |
| `O=C1NCCN1CCNc1cc(-c2ccccc2)nc2ccnn12` | 10.64 | 4.972 | 9.639 |
| `O=C1CCC(C(=O)Nc2cnn(-c3ccccc3Cl)c2)N1` (centres undefined) | -26.41 | 10.1 | 19.51 |
| `O=C(C1CC2(CCNCC2)CN1)N1CCN(c2ccccc2)CC1` (centres undefined) | -65.67 | 2.186 | 0 |
| `Cc1ncccc1O[C@H]1CCN(C(=O)c2cccs2)CC[C@@H]1O` | 12.29 | 3.784 | -2.778 |
| `Cc1nc(-c2cnn(C)c2)sc1C(=O)NCc1ccc(C)n1C` | 25.27 | 15.52 | 23.68 |
| `CC(NC(=O)c1ccoc1)C(=O)N(C)Cc1ccc(O)cc1` (centres undefined) | -61.82 | 4.433 | 1.316 |
| `O=C1CCC[C@]2(CN(S(=O)(=O)N3CCOCC3)C[C@H]2c2cccnc2)N1` | - | 1.88 | 2.837 |
| `CN(Cc1csc(-c2cccs2)n1)C(=O)CN1CCOC1=O` | -0.5562 | 3.448 | 16.13 |
| `CN(C)CC(=O)N1CCC2(CCc3ccc(-c4ccncc4)cc32)CC1.O=C(O)C(F)(F)F.O=C(O)C(F)(F)F` | -33.6 | - | - |
| `CN(C)c1ncc(NS(=O)(=O)c2ccc(OC(F)(F)F)cc2)cn1` | -54.82 | 7 | 8.696 |
| `CCOCC(=O)Nc1nccn1Cc1ccccc1Cl` | -57.34 | 12.71 | 9.639 |
| `CN(Cc1ncc(-c2ccccc2)o1)CC1CCCN1c1cccnn1` (centres undefined) | -2.183 | 0.3774 | 42.67 |
| `Cc1ccoc1C(=O)NCCOc1ncc(Cl)cc1Cl` | -58.14 | 3.093 | 29.03 |
| `COCCNC(=O)Cn1ccc2cccc(OC)c21` | -2.705 | 2.924 | -13.16 |
| `COc1ccc2c(C)c(C(=O)NC3CCOCC3)oc2c1` | -17.94 | 5.319 | 15.62 |
| `Cc1ccc(CC(=O)N2CCOCC2c2c(C)n[nH]c2C)cc1` (centres undefined) | -24.56 | 6.098 | 1.205 |
| `CC(C)CC(=O)N1CC[C@H]2C[C@H](c3nccs3)O[C@@H]2C1` | - | 7.317 | 20.51 |
| `Brc1cccnc1OC1CCNCC1` | - | 3.636 | 23.38 |
| `CC(C)n1c2ccccc2c2c1cc(C(=O)N(C)C)n2C` | -58.05 | 0 | 4.545 |
| `O=S1(=O)CCC(c2nnc(-c3cnc4onc(C5CC5)c4c3)o2)C1` (centres undefined) | -43.14 | 5.882 | 1.667 |
| `Cc1nc(CN2C(=O)COC3(CCN(Cc4ccsc4)CC3)C2C)cs1.O=C(O)C(F)(F)F` (centres undefined) | -38.1 | - | - |
| `CC(C)N1CCN(c2ccc3ccc(C(=O)NC4CCCC4)cn23)CC1.O=C(O)C(F)(F)F` | -5.077 | - | - |

For reference, 7 entries once more:

Compound,T. brucei,TcHisRS,LiHisRS
CN(Cc1ncc(-c2ccccc2)o1)CC1CCCN1c1cccnn1 (centres undefined),-2.183,0.3774,42.67
[H][C@@]12CCN(Cc3ccccn3)C[C@@]1([H])O[C@H](C)C2,-20.18,-,-
Cc1nc(CN2C(=O)COC3(CCN(Cc4ccsc4)CC3)C2C)cs1.O=C(O)C(F)(F)F (centres undefined),-38.1,-,-
CN(C)CC(=O)N1CCC2(CCc3ccc(-c4ccncc4)cc32)CC1.O=C(O)C(F)(F)F.O=C(O)C(F)(F)F,-33.6,-,-
CCc1ccc(C(=O)Nc2ccc(CC3CC(=O)NC3=O)cc2)cc1 (centres undefined),-8.883,-0.8264,25
CCCC(=O)N(CCCN1CCOCC1)c1nc2c(C)c(C)ccc2s1.Cl,27.33,-,-
CN(Cc1csc(-c2cccs2)n1)C(=O)CN1CCOC1=O,-0.5562,3.448,16.13

Data taken from ChEMBL document CHEMBL3988442, “University of Dundee, Small-Polar-MMV Screening Library” (2021).